# Data published in PubChem BioAssay AID1347076 (National Center for Advancing Translational Sciences (NCATS), 2019).
# The campaign covered roughly 400,000 compounds. About 13,000 (3.2%) were called active. Inconclusive means that the source gave no clear call. Such entries were picked first, then a sample of the others. The call rests on the fitted dose curve; in most records, active means well fitted cell-killing curve with a large enough effect; inconclusive means small, poorly fitted or top-dose-only effect, or effect the other way; inactive means flat fitted curve, though single readings scatter. Where the call is inconclusive, the potency comes from a doubtful curve fit.
# Test: qHTS assay for MDR1-selective chemotherapeutics: Primary screen using the drug-selected MDR subline cells KB-V1; further: nearly all actives have a fitted effect of over 60% in size
# Settings: KB-V1 MDR cells viability, CellTiter-Glo, 72 h; activity change, negative = cytotoxicity: at 46.1 µM (top of the series)
# Method in brief: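 Luminescent ATP read-out (CellTiter-Glo, 10 min) measures survival of drug-selected KB-V1 MDR cells after 72 h, 37 degrees C compound exposure. Medium: phenol-red-free DMEM, 10% FBS. Values from fitted concentration-response curves.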
# On the % scale 0 is the no-effect control and ±100 the full control effect; potency means the concentration at half of the fitted maximal effect.
SMILES,"activity change, negative = cytotoxicity",Potency
CC(NC(=O)Cn1cccc1C(=O)c1ccccc1)c1ccccc1 (centres undefined),inconclusive: -2.42%,–
O=C1Nc2ccccc2N(C(=O)c2ccc(-c3ccccc3)cc2)C1c1nc2ccccc2[nH]1 (centres undefined),–,"inconclusive: 23.1 µM [cytotoxic, single point]"
O=[N+]([O-])c1ccc2[nH]cc(S(=O)(=O)N3CCN(c4cccc(Cl)c4)CC3)c2c1,–,"inconclusive: 29.1 µM [cytotoxic, single point]"
COc1ccc(-c2cccc([C@H]3[C@@H]4C=CCC[C@@]4(C)C(=O)N3Cc3ccccc3)c2)cc1,–,"inconclusive: 29.1 µM [cytotoxic, single point]"
CCCN(CCC)CC(O)Cn1cc(/C=C/C(=O)c2cccs2)c2ccccc21 (centres undefined),–,"inconclusive: 23.1 µM [cytotoxic, partial curve, poor fit]"
CCC(C)(C)NC(=O)Cc1ccccc1OC,–,inactive
CCCN(CC(=O)Nc1ccccc1C)C(=O)c1ccc(S(=O)(=O)N2CCCCCC2)cc1,–,"inconclusive: 5.8 µM [cytotoxic, partial curve, poor fit]"
CN(Cc1c(C(=O)N/N=C/c2cccc(Cl)c2)nnn1-c1nonc1N)c1ccccc1,–,inactive
O=C(Nc1nnc(C2CCCCC2)s1)C1CC(=O)N(c2ccc(F)cc2)C1 (centres undefined),–,inactive
Cc1cccc(NC(=O)c2ccc(-c3ccccc3[N+](=O)[O-])o2)c1,–,"inconclusive: 16.4 µM [cytotoxic, single point]"
CCOC(=O)C1C(=O)CC(C)(O)C(C(=O)OCC)C1/C=C/c1ccccc1 (centres undefined),–,active: 18.4 µM
COc1ccc2c(c1)OC[C@H]1[C@H]2N2C(=O)c3cc(F)ccc3NC(=O)[C@@]2(C)[C@H]1c1ccccc1,–,"inconclusive: 20.6 µM [cytotoxic, single point]"
CCOC(=O)CN1C(=O)C(C)(C)Oc2ccc(C(=O)Nc3ccccc3)cc21,–,inactive
COc1cc(/C=C2/NC(=O)N(Cc3ccccc3F)C2=O)cc(OC)c1OC,–,active: 0.184 µM
CNC(=O)/C=C1\NC(C)(C)Cc2c1ccc1ccccc21,–,"inconclusive: 16.4 µM [cytotoxic, single point]"
CCNC(=S)NNC(=O)c1cccc(Br)c1,–,"inconclusive: 29.1 µM [cytotoxic, single point]"
CN(CC(=O)Nc1ccc(N2CCOCC2)cc1)C(=O)C12CC3CC(CC(C3)C1)C2,–,"inconclusive: 20.6 µM [cytotoxic, single point]"
O=C(COC(=O)C1CCN(c2ccc(C(F)(F)F)cn2)CC1)NCCc1ccccc1,–,"inconclusive: 29.1 µM [rising, single point]"
Cc1[nH][nH]c(=O)c1C(c1ccc(-c2ccc(Cl)cc2)o1)c1c(C)[nH][nH]c1=O,–,"inconclusive: 20.6 µM [cytotoxic, partial curve, poor fit]"
c1ccc(-c2nnc3n2N=C(c2ccc4c(c2)OCO4)CS3)nc1,–,"inconclusive: 18.4 µM [cytotoxic, partial curve, poor fit]"
COc1cc(-c2noc(-c3ccc(NCCc4ccccc4)c([N+](=O)[O-])c3)n2)cc(OC)c1OC,–,"inconclusive: 23.1 µM [rising, single point]"
CCCCOc1ccc(C(=O)NCC(=O)NC2CCC(C)CC2)cc1 (centres undefined),–,"inconclusive: 8.2 µM [cytotoxic, partial curve]"
CNC(=O)CS(=O)CC(=O)Nc1cc(OC(C)C)c(Cl)cc1Cl (centres undefined),–,"inconclusive: 16.4 µM [rising, partial curve, poor fit]"

SMILES,"activity change, negative = cytotoxicity",Potency
O=C(N/N=C/c1cccc2ccccc12)c1n[nH]c2c1CCCC2,–,active: 2.59 µM
Cc1[nH]c2ccccc2c1C(=O)C(=O)N1CCN(C(=O)c2ccco2)CC1,–,inactive
COC(=O)c1ccccc1NCc1cc(=O)oc2cc(O)c(O)cc12,–,"inconclusive: 13 µM [cytotoxic, partial curve, poor fit]"
Fc1ccc2c(c1)Sc1ccc(Cl)cc1CC2N1CCN(CCC2OCCO2)CC1 (centres undefined),–,inactive
Cc1cc(OCc2cc(C(=O)NC(C)c3cnn(C)c3)no2)cc(C)c1Cl (centres undefined),–,"inconclusive: 18.4 µM [cytotoxic, single point]"
CCc1nc(NCCc2ccccn2)c2nnn(Cc3ccccc3F)c2n1,–,inactive
COc1cc2c(cc1NC(=O)c1cccc(F)c1)CCCC2,–,active: 23.1 µM
CC(C)COc1ccc(C(=O)Nc2cc(S(=O)(=O)N3CCOCC3)ccc2N2CCCC2)cc1,–,inactive
CC(=O)C1CCC2C3CC=C4N(C)C(=O)CCC4(C)C3CCC12C (centres undefined),–,"inconclusive: 29.1 µM [cytotoxic, single point]"
N#CC(C#N)=c1ccc2c(c1)NC1(CCCCC1)N=2,–,"inconclusive: 29.1 µM [cytotoxic, single point]"
CCCCOCCCNC(=O)C[C@@H]1C[C@@]2(C(=O)OCC)CCCC=C2N(CCc2ccc(OC)c(OC)c2)C1=O,–,"inconclusive: 4.61 µM [cytotoxic, partial curve]"
CC(C)OCCCN1C(=O)c2[nH]nc(-c3ccccc3O)c2C1c1cccc(Cl)c1 (centres undefined),–,active: 16.4 µM
O=C(CCN1CCc2ccccc2CC1)c1ccc2c(c1)OCCO2,–,"inconclusive: 29.1 µM [cytotoxic, single point]"
Cc1cc(C)cc(N2C(N)=NC(N)=NC2c2ccccc2F)c1 (centres undefined),–,active: 16.4 µM
COC(=O)[C@H](CC(C)C)NS(=O)(=O)N[C@@H](CC(C)C)C(=O)OC,–,"inconclusive: 29.1 µM [cytotoxic, single point]"
CCCCn1c(SCC(=O)Nc2nnc(CC)s2)nc2c1c(=O)n(C)c(=O)n2C,–,active: 20.6 µM
Oc1ccc(N2CCN(c3ccnc4cc(Cl)ccc34)CC2)cc1,–,active: 14.6 µM
COc1cccc(C(=O)Nc2ccc(C(F)(F)F)n(C)c2=O)c1,–,"inconclusive: 9.2 µM [cytotoxic, partial curve, poor fit]"
CN(C)CCCNc1ncnc2oc(-c3ccccc3)c(-c3ccccc3)c12,–,inactive
COc1cccc(CNC(=O)C(=O)NCC2OCCCN2S(=O)(=O)c2cc(C)ccc2C)c1 (centres undefined),–,"inconclusive: 9.2 µM [cytotoxic, partial curve]"
CCC(C)c1ccccc1N1CC(C(=O)N2CCN(c3ccccc3)CC2)CC1=O (centres undefined),–,"inconclusive: 20.6 µM [cytotoxic, partial curve, poor fit]"
CC(C)(C)OC(=O)N(Cc1ccccc1)Cc1ccccc1OCc1cccc(NC(=O)c2ccccc2)c1,–,"inconclusive: 16.4 µM [cytotoxic, single point]"
N#Cc1c(N)nc2c(c1-c1ccncc1)CCCCCC2,–,"inconclusive: 20.6 µM [cytotoxic, single point]"

# 2 entries from above, bar-delimited:
SMILES | activity change, negative = cytotoxicity | Potency
O=C(CCN1CCc2ccccc2CC1)c1ccc2c(c1)OCCO2 | – | inconclusive: 29.1 µM [cytotoxic, single point]
COc1cccc(C(=O)Nc2ccc(C(F)(F)F)n(C)c2=O)c1 | – | inconclusive: 9.2 µM [cytotoxic, partial curve, poor fit]

# Later entries

SMILES,"activity change, negative = cytotoxicity",Potency
CCCCc1cc(=O)oc2cc(C)cc(OCC(=O)N3CCC(C(=O)O)(c4ccccc4)CC3)c12,–,"inconclusive: 16.4 µM [rising, partial curve]"
COc1ccc(CN2C(=O)CCC2(C)C(=O)NC2CCCCCC2)cc1 (centres undefined),–,active: 14.6 µM
COc1ccc(Br)cc1CN1CCN(C(=O)c2cccc(OC)c2OC)CC1,–,inactive
COc1ccc(N2CCN(c3nc4c(c(=O)n(C)c(=O)n4C)n3Cc3ccccc3)CC2)cc1,–,"inconclusive: 16.4 µM [cytotoxic, single point]"
COCCn1c(SCC(=O)N2CCC(C)CC2)nc2ccccc2c1=O,–,inactive
CCc1cn([C@H]2C[C@H](O)[C@@H](CO)O2)c(=O)[nH]c1=O,–,"inconclusive: 16.4 µM [cytotoxic, partial curve]"
Cc1cc(C(=O)OC(C(=O)Nc2cccc(C(F)(F)F)c2)c2ccccc2)c(C)o1 (centres undefined),–,"inconclusive: 23.1 µM [cytotoxic, partial curve]"
O=c1c2cnn(-c3ccccc3)c2nc(-c2ccco2)n1-c1ccccc1,–,active: 5.17 µM
COc1ccc(N)cc1-n1cnnn1,–,"inconclusive: 25.9 µM [rising, single point]"
Cc1cccc(NC(=O)CSc2nc3c(oc4ccccc43)c(=O)n2C(C)C)c1,–,inactive
COc1ccc(N2CCN(C(c3ccccc3)c3nnc(-c4ccccc4Cl)o3)CC2)cc1 (centres undefined),–,inactive
Cn1cnc([N+](=O)[O-])c1S(=O)(=O)c1cccc(Cl)c1,inconclusive: -30.1%,–
CN(C)c1ccc(/C=C/c2sc3ccccc3[n+]2Cc2ccccc2)cc1,–,"inconclusive: 2.91 µM [rising, partial curve, poor fit]"
COc1ccc(C(=O)c2oc3ccccc3c2NC(=O)COc2c(C)cc(C)cc2C)cc1,–,inactive
O=C(CCNC(=O)c1ccc([N+](=O)[O-])cc1)NCCc1ccc(Cl)cc1,–,"inconclusive: 16.4 µM [cytotoxic, single point]"
CCC(=O)N1CCc2cc(S(=O)(=O)CCC(=O)N3CCc4ccccc4C3)ccc21,–,inactive
Cc1ccc(CS(=O)(=O)Cc2ccc(C(=O)NCCc3ccc(Cl)cc3)o2)cc1,inconclusive: -30.5% [cytotoxic],–
CCc1nn(CCCC(=O)NC2CCCCC2C)c(=O)c2cc3occc3n12 (centres undefined),–,"inconclusive: 4.61 µM [cytotoxic, full curve]"
Cc1ccc(NC(=S)N(CCN2CCOCC2)Cc2ccccc2F)cc1Cl,–,"inconclusive: 5.17 µM [cytotoxic, full curve]"
COc1c2ccccc2nn1C(C)C,–,inactive
O=C(/C=C/c1ccc2c(c1)OCO2)Nc1cccnc1,–,inactive
COc1cc(/C=N/NC(=O)c2ccc(Cn3cc([N+](=O)[O-])cn3)o2)cc(Br)c1O,–,inactive
O=C(N/N=C/c1sc(=O)[nH]c1-[n+]1ccc2ccccc2c1)c1ccccc1[O-],–,"inconclusive: 18.4 µM [cytotoxic, single point]"
